# Reference: the supplement of paper PMC8728848
# This is one part of the list.
# How the values were obtained:
# Experiment in all cases: glycan array binding signal (z-score within array); higher = stronger binding
# Details in all cases: glycan notation: IUPAC condensed, linker removed
# [1] = target: Fuc(a1-2)[Gal(a1-3)]Gal(b1-4)GlcNAc(b1-2)Man(a1-3)[Fuc(a1-2)[Gal(a1-3)]Gal(b1-4)GlcNAc(b1-2)Man(a1-6)]Man(b1-4)GlcNAc(b1-4)GlcNAc
# How it was run: (§1)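 Glycan array data were curated from 3228 arrays in the Consortium for Functional Glycomics database and kept only where the protein sequence was available. Glycan names were converted to IUPAC-condensed notation, and columns mapping to the same glycan were averaged. The binding signal is a within-array Z-score, averaged across arrays of the same protein sequence at different concentrations or buffers and across linkers. Negative Z-scores can be read as non-binding.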
# [2] = target: Fuc(a1-2)[Gal(a1-3)]Gal(b1-4)GlcNAc(b1-2)Man(a1-3)[Fuc(a1-2)[Gal(a1-3)]Gal(b1-4)GlcNAc(b1-2)Man(a1-6)]Man(b1-4)GlcNAc(b1-4)[Fuc(a1-6)]GlcNAc
# How it was run: as §1
# [3] = target: Fuc(a1-2)[Gal(a1-3)]Gal(b1-4)GlcNAc(b1-3)GalNAc
# How it was run: as §1
# [4] = target: Fuc(a1-2)[Gal(a1-3)]Gal(b1-4)GlcNAc(b1-3)[Fuc(a1-2)[Gal(a1-3)]Gal(b1-4)GlcNAc(b1-6)]GalNAc
# How it was run: as §1
# [5] = target: Fuc(a1-2)[Gal(a1-3)]Gal(b1-4)GlcNAc(b1-6)GalNAc
# How it was run: as §1
# [6] = target: Fuc(a1-2)[Gal(a1-3)]Gal(b1-4)[Fuc(a1-3)]Glc
# How it was run: as §1
# [7] = target: Fuc(a1-2)[Gal(a1-3)]Gal(b1-4)[Fuc(a1-3)]GlcNAc
# How it was run: as §1
# [8] = target: Fuc(a1-2)[Gal(a1-3)]Gal(b1-4)[Fuc(a1-3)]GlcNAc(b1-3)GalNAc
# How it was run: as §1
# [9] = target: Fuc(a1-2)[Gal(a1-4)]Gal(b1-4)GlcNAc
# How it was run: as §1
# [10] = target: Fuc(a1-2)[GalNAc(a1-3)]Gal
# How it was run: as §1
# [11] = target: Fuc(a1-2)[GalNAc(a1-3)]Gal(b1-3)GalNAc(a1-3)[Fuc(a1-2)]Gal(b1-4)GlcNAc
# How it was run: as §1
# [12] = target: Fuc(a1-2)[GalNAc(a1-3)]Gal(b1-3)GalNAc(b1-3)Gal(a1-4)Gal(b1-4)Glc
# How it was run: as §1
# [13] = target: Fuc(a1-2)[GalNAc(a1-3)]Gal(b1-3)GlcNAc
# How it was run: as §1
# [14] = target: Fuc(a1-2)[GalNAc(a1-3)]Gal(b1-3)GlcNAc(b1-2)Man(a1-3)[Fuc(a1-2)[GalNAc(a1-3)]Gal(b1-3)GlcNAc(b1-2)Man(a1-6)]Man(b1-4)GlcNAc(b1-4)GlcNAc
# How it was run: as §1
# [15] = target: Fuc(a1-2)[GalNAc(a1-3)]Gal(b1-3)GlcNAc(b1-2)Man(a1-3)[Fuc(a1-2)[GalNAc(a1-3)]Gal(b1-3)GlcNAc(b1-2)Man(a1-6)]Man(b1-4)GlcNAc(b1-4)[Fuc(a1-6)]GlcNAc
# How it was run: as §1
# [16] = target: Fuc(a1-2)[GalNAc(a1-3)]Gal(b1-3)GlcNAc(b1-3)GalNAc
# How it was run: as §1
# [17] = target: Fuc(a1-2)[GalNAc(a1-3)]Gal(b1-3)GlcNAc(b1-6)GalNAc
# How it was run: as §1
# [18] = target: Fuc(a1-2)[GalNAc(a1-3)]Gal(b1-4)Glc
# How it was run: as §1
# [19] = target: Fuc(a1-2)[GalNAc(a1-3)]Gal(b1-4)GlcNAc
# How it was run: as §1
# [20] = target: Fuc(a1-2)[GalNAc(a1-3)]Gal(b1-4)GlcNAc(b1-2)Man
# How it was run: as §1
# [21] = target: Fuc(a1-2)[GalNAc(a1-3)]Gal(b1-4)GlcNAc(b1-2)Man(a1-3)[Fuc(a1-2)[GalNAc(a1-3)]Gal(b1-4)GlcNAc(b1-2)Man(a1-6)]Man(b1-4)GlcNAc(b1-4)GlcNAc
# How it was run: as §1
# [22] = target: Fuc(a1-2)[GalNAc(a1-3)]Gal(b1-4)GlcNAc(b1-2)Man(a1-3)[Fuc(a1-2)[GalNAc(a1-3)]Gal(b1-4)GlcNAc(b1-2)Man(a1-6)]Man(b1-4)GlcNAc(b1-4)[Fuc(a1-6)]GlcNAc
# How it was run: as §1
# [23] = target: Fuc(a1-2)[GalNAc(a1-3)]Gal(b1-4)GlcNAc(b1-3)Gal(b1-4)GlcNAc
# How it was run: as §1
# [24] = target: Fuc(a1-2)[GalNAc(a1-3)]Gal(b1-4)GlcNAc(b1-3)Gal(b1-4)GlcNAc(b1-3)Gal(b1-4)GlcNAc
# How it was run: as §1
# [25] = target: Fuc(a1-2)[GalNAc(a1-3)]Gal(b1-4)GlcNAc(b1-3)GalNAc
# How it was run: as §1
# [26] = target: Fuc(a1-2)[GalNAc(a1-3)]Gal(b1-4)GlcNAc(b1-3)[Fuc(a1-2)[GalNAc(a1-3)]Gal(b1-4)GlcNAc(b1-6)]GalNAc
# How it was run: as §1
# [27] = target: Fuc(a1-2)[GalNAc(a1-3)]Gal(b1-4)GlcNAc(b1-6)GalNAc
# How it was run: as §1
# [28] = target: Fuc(a1-2)[GalNAc(a1-3)]Gal(b1-4)[Fuc(a1-3)]GlcNAc
# How it was run: as §1
# [29] = target: Fuc(a1-2)[GalNAc(a1-3)]Gal(b1-4)[Fuc(a1-3)]GlcNAc(b1-3)GalNAc
# How it was run: as §1
# [30] = target: Fuc(a1-2)[GalNAc(a1-4)]Gal(b1-4)GlcNAc
# How it was run: as §1
# [31] = target: Fuc(a1-2)[GalNAc(b1-3)]Gal
# How it was run: as §1
# Fuc(a1-3)GlcNAc = target: Fuc(a1-3)GlcNAc
# How it was run: as §1
# [32] = target: Fuc(a1-3)[Gal(b1-4)]Glc6S
# How it was run: as §1
# [33] = target: Fuc(a1-3)[Gal(b1-4)]GlcNAc
# How it was run: as §1
# [34] = target: Fuc(a1-3)[Gal(b1-4)]GlcNAc(b1-2)Man
# How it was run: as §1
# [35] = target: Fuc(a1-3)[Gal(b1-4)]GlcNAc(b1-2)Man(a1-3)[Fuc(a1-3)[Gal(b1-4)]GlcNAc(b1-2)Man(a1-6)]Man(b1-4)GlcNAc(b1-4)GlcNAc
# How it was run: as §1
# [36] = target: Fuc(a1-3)[Gal(b1-4)]GlcNAc(b1-2)Man(a1-3)[Fuc(a1-3)[Gal(b1-4)]GlcNAc(b1-2)Man(a1-6)]Man(b1-4)GlcNAc(b1-4)[Fuc(a1-6)]GlcNAc
# How it was run: as §1
binder,measurement,setting,value
Epa8 (Candida glabrata) (protein) MGSSHHHHHHSSGLVPRGSHMASSRALSDYPLGCSPLLGTKLTPGLSMELYEYPLDNHGIGPHCWDPAYLNPEYPRTGFESHKLIGTAQNVMSLNFEHRTQDCHVEFSNLPASFNFPDQITLTNFTMLLYGYFKPKESGRYRFHMEADDLLLMNLGAGNAFDCCAHEATRNNLGDYIAYDIWAGTRKDVEVFLEKEVFYPLRLFFNNRDGRAALDFSYYLNGATEPGTDIPELLFSLPDGESCPAYI,glycan array binding signal (z-score),[1],-0.353
same,glycan array binding signal (z-score),[2],0.03
same,glycan array binding signal (z-score),[3],-0.576
same,glycan array binding signal (z-score),[4],0.437
same,glycan array binding signal (z-score),[5],1.43
same,glycan array binding signal (z-score),[6],-0.691
same,glycan array binding signal (z-score),[7],-0.006
same,glycan array binding signal (z-score),[8],0.72
same,glycan array binding signal (z-score),[9],-0.094
same,glycan array binding signal (z-score),[10],-0.593
same,glycan array binding signal (z-score),[11],-0.446
same,glycan array binding signal (z-score),[12],0.323
same,glycan array binding signal (z-score),[13],-0.03
same,glycan array binding signal (z-score),[14],-0.325
same,glycan array binding signal (z-score),[15],0.09
same,glycan array binding signal (z-score),[16],0.525
same,glycan array binding signal (z-score),[17],-0.174
same,glycan array binding signal (z-score),[18],-0.151
same,glycan array binding signal (z-score),[19],-0.237
same,glycan array binding signal (z-score),[20],-0.002
same,glycan array binding signal (z-score),[21],1.72
same,glycan array binding signal (z-score),[22],0.443
same,glycan array binding signal (z-score),[23],-0.51
same,glycan array binding signal (z-score),[24],0.493
same,glycan array binding signal (z-score),[25],-0.515
same,glycan array binding signal (z-score),[26],0.36
same,glycan array binding signal (z-score),[27],-0.273
same,glycan array binding signal (z-score),[28],-0.536
same,glycan array binding signal (z-score),[29],3.16
same,glycan array binding signal (z-score),[30],-0.072
same,glycan array binding signal (z-score),[31],0.229
same,glycan array binding signal (z-score),Fuc(a1-3)GlcNAc,0.171
same,glycan array binding signal (z-score),[32],0.622
same,glycan array binding signal (z-score),[33],-0.523
same,glycan array binding signal (z-score),[34],-0.309
same,glycan array binding signal (z-score),[35],-0.093
same,glycan array binding signal (z-score),[36],0.585

# Two entries from above, set out differently:
binder	measurement	setting	value
Epa8 (Candida glabrata) (protein) MGSSHHHHHHSSGLVPRGSHMASSRALSDYPLGCSPLLGTKLTPGLSMELYEYPLDNHGIGPHCWDPAYLNPEYPRTGFESHKLIGTAQNVMSLNFEHRTQDCHVEFSNLPASFNFPDQITLTNFTMLLYGYFKPKESGRYRFHMEADDLLLMNLGAGNAFDCCAHEATRNNLGDYIAYDIWAGTRKDVEVFLEKEVFYPLRLFFNNRDGRAALDFSYYLNGATEPGTDIPELLFSLPDGESCPAYI	glycan array binding signal (z-score)	[21]	1.72
same	glycan array binding signal (z-score)	[33]	-0.523
